± gives the standard deviation of the averaged measurements. The list shows a part of the results.
Compound: Nc1nc2c(ncn2[C@@H]2O[C@H](COP(=O)(O)OP(=O)(O)OP(=O)(O)O)[C@@H](O)[C@H]2O)c(=O)[nH]1 [guanosine triphosphate]
Test: NP40-soluble protein abundance relative to vehicle (solubility fold change) (ratio); higher = more soluble protein in presence of GTP
Summary of the method: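 Across three independent experiments, values are fold changes against the detergent-processed vehicle for each replicate, based on vsn-normalised intensities. The samples were Jurkat crude lysate treated with eight concentrations (0.1 to 10 mM) for 10 min at room temperature and then 3 min at 37 °C. Lysate was solubilised with 0.8% NP40 and benzonase, ultracentrifuged, and the supernatant analysed by TMT-labelled LC-MS/MS.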

The chains behind the UniProt entries cited, without tags or fusion partners. Where a name states a change or a piece, a line headed by the entry shows the natural chain unless it says otherwise.
UniProt Q96HA7: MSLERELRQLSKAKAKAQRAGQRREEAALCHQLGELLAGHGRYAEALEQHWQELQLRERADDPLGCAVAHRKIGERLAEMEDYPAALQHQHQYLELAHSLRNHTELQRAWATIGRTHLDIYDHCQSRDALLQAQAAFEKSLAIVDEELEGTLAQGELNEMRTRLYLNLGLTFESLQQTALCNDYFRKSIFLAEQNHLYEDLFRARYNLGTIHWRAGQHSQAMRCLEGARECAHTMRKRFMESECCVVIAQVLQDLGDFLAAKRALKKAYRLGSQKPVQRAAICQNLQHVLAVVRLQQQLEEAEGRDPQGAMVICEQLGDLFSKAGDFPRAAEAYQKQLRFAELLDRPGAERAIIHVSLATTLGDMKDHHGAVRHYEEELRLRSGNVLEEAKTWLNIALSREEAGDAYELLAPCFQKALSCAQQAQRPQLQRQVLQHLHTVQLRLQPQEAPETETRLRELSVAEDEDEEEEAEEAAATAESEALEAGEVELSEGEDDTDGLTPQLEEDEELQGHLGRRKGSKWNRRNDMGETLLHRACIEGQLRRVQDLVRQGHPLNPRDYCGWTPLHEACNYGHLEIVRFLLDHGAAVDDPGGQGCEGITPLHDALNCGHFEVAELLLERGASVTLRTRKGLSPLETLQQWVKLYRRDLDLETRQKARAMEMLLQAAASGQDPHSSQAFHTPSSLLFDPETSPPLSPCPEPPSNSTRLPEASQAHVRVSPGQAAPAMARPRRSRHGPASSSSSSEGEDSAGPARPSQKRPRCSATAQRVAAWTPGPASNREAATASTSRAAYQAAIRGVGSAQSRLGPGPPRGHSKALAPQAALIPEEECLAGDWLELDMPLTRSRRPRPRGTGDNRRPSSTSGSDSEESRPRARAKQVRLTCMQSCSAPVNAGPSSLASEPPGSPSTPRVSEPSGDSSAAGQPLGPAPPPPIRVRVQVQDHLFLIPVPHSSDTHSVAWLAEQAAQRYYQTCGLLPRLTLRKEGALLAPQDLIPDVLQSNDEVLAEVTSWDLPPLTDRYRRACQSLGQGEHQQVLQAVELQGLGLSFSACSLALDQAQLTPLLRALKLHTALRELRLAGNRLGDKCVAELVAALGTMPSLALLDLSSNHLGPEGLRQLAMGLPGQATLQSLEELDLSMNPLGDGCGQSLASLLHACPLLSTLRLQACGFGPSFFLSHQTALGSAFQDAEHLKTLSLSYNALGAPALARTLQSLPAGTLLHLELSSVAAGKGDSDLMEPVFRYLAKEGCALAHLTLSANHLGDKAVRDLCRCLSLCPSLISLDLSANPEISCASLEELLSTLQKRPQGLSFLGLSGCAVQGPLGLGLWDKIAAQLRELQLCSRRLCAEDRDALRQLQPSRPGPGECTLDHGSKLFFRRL
UniProt Q96G03: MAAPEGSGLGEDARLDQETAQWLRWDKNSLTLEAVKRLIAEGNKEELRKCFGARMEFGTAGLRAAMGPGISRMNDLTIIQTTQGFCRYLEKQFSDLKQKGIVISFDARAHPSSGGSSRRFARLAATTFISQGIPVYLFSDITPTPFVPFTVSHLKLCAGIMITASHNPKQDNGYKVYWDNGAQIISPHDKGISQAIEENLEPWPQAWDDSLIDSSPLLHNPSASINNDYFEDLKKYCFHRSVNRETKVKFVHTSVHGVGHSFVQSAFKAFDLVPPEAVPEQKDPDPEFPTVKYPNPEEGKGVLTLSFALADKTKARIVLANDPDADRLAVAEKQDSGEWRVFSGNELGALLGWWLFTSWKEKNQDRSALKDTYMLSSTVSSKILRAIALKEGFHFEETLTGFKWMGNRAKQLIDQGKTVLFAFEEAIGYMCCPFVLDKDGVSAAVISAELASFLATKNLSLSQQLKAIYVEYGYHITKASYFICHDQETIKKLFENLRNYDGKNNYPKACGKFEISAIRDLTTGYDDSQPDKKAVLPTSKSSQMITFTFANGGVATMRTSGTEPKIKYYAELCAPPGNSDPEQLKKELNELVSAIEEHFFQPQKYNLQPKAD
UniProt Q96JB5: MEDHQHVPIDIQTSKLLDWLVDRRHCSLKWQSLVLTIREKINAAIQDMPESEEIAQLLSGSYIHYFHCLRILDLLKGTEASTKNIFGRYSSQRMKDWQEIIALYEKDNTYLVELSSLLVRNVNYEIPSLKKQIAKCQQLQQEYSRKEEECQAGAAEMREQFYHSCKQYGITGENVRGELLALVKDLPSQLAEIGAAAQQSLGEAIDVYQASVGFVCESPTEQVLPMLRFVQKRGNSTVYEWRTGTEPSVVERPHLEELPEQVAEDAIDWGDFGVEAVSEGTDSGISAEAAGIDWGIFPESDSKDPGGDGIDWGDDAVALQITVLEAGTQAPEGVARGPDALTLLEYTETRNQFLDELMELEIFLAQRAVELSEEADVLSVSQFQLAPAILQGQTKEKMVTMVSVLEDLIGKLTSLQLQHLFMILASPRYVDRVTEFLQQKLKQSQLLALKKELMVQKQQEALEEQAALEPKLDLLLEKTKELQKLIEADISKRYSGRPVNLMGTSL
UniProt Q96DZ1: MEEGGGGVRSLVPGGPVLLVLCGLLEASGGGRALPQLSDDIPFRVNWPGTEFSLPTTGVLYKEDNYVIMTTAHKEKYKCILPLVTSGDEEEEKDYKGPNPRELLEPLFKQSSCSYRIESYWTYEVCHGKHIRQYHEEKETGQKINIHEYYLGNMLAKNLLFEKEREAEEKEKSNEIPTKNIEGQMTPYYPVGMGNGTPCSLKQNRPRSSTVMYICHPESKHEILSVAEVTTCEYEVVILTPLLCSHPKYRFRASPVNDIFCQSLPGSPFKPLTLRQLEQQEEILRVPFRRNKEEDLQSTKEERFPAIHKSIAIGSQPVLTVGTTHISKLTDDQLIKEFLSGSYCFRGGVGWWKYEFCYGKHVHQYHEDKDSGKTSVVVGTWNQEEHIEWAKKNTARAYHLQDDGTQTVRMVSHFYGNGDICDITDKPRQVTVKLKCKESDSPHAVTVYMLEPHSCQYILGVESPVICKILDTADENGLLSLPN
UniProt Q96BS2: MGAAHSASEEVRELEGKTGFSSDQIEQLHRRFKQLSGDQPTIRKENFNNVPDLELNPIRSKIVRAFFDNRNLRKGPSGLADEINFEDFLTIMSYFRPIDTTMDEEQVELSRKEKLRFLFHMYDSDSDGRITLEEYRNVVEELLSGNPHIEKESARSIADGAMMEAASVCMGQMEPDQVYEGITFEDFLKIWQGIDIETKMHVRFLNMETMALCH
UniProt Q8WVK2: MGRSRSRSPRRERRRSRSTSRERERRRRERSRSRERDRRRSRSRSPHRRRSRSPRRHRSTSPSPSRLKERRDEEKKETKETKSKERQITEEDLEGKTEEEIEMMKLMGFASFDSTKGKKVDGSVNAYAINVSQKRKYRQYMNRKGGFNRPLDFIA
UniProt Q8WZA9: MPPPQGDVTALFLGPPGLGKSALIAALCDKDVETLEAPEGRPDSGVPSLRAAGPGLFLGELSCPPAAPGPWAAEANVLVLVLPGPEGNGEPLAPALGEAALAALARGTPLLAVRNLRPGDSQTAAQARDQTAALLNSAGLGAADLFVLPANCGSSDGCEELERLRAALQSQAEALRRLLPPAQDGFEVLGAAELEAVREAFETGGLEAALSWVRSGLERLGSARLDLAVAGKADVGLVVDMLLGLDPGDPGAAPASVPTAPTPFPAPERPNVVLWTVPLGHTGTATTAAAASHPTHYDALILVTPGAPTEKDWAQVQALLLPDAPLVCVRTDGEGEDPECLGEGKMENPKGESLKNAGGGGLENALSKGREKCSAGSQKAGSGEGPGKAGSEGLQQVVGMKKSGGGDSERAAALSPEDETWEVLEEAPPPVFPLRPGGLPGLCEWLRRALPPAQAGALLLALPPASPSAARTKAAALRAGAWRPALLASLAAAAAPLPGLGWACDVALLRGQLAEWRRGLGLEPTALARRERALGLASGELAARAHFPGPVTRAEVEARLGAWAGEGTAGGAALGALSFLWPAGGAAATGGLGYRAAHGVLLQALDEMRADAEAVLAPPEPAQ
UniProt Q8WXF1: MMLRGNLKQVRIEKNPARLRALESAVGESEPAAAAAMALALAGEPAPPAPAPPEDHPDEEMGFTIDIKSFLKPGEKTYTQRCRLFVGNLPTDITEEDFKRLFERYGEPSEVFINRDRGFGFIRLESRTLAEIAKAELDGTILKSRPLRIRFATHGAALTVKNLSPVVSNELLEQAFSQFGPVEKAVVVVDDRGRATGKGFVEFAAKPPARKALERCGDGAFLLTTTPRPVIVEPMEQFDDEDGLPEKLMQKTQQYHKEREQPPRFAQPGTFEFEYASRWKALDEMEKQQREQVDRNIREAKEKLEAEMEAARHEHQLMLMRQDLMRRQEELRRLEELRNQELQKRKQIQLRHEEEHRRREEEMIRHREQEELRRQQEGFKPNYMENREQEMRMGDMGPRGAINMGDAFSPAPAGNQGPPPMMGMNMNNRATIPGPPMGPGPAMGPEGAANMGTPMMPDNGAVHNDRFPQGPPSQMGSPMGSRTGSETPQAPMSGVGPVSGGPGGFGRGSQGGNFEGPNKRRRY
UniProt Q92542, whole entry: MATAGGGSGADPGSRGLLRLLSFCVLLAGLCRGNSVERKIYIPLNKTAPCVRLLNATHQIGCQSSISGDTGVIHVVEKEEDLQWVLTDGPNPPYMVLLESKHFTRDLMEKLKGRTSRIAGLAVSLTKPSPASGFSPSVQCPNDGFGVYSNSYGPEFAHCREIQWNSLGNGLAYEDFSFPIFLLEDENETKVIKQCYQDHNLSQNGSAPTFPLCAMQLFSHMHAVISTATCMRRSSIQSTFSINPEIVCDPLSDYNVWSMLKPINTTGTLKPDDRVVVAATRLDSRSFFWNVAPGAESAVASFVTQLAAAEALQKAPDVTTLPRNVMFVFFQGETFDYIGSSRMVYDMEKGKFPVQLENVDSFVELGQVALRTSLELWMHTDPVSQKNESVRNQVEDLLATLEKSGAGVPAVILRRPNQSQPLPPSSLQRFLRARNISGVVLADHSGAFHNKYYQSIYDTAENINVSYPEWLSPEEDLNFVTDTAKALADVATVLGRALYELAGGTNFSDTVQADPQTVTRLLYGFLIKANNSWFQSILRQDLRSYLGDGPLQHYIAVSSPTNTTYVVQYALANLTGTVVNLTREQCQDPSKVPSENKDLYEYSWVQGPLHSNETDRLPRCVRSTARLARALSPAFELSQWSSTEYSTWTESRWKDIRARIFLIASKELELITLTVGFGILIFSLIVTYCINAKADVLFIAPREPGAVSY
UniProt Q92597: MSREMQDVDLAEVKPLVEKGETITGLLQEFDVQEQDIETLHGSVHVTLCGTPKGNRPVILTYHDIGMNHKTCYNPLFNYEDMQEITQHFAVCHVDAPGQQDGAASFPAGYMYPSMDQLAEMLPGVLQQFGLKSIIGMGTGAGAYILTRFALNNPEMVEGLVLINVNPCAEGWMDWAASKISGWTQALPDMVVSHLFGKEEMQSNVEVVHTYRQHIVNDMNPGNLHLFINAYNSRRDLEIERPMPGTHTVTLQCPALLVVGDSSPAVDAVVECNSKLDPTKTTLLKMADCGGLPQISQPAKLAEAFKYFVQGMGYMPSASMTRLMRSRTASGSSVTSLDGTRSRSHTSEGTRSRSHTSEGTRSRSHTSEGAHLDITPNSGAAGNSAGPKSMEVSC
UniProt Q96AG4: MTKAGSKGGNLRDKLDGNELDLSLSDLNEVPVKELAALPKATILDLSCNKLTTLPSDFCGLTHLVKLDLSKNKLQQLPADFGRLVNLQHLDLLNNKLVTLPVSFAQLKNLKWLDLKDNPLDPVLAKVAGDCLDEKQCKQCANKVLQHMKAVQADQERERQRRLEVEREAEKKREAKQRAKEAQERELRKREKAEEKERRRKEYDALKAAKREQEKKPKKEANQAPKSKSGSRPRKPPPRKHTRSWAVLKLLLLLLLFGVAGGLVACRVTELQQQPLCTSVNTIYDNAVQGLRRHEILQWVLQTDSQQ

Target | NP40-soluble protein abundance (concentration: 0.1mM) | NP40-soluble protein abundance (concentration: 0.5mM) | NP40-soluble protein abundance (concentration: 1mM) | NP40-soluble protein abundance (concentration: 2mM) | NP40-soluble protein abundance (concentration: 4mM) | NP40-soluble protein abundance (concentration: 6mM) | NP40-soluble protein abundance (concentration: 8mM) | NP40-soluble protein abundance (concentration: 10mM)
UniProt Q96HA7 and related entries | 1.08 ± 0.18 | 1.07 ± 0.065 | 1.07 ± 0.093 | 1.12 ± 0.17 | 1.19 ± 0.2 | 1.14 ± 0.1 | 1.18 ± 0.18 | 1.18 ± 0.081
PGM2 (UniProt Q96G03) | 0.997 ± 0.017 | 1 ± 0.029 | 0.915 ± 0.025 | 0.913 ± 0.041 | 0.893 ± 0.055 | 0.877 ± 0.027 | 0.868 ± 0.043 | 0.86 ± 0.074
UniProt Q96GX5 and related entries | 1.02 ± 0.041 | 1.01 ± 0.065 | 1.04 ± 0.077 | 1 ± 0.073 | 0.959 ± 0.049 | 0.971 ± 0.086 | 1.02 ± 0.065 | 0.955 ± 0.031
CDK5RAP3 (UniProt Q96JB5) | 0.955 ± 0.083 | 0.914 ± 0.044 | 0.905 ± 0.06 | 0.927 ± 0.034 | 0.968 ± 0.067 | 0.952 ± 0.031 | 0.946 ± 0.059 | 0.954 ± 0.029
UniProt Q96DZ1 and related entries | 1.01 ± 0.027 | 1 ± 0.023 | 0.996 ± 0.036 | 1.02 ± 0.017 | 0.995 ± 0.025 | 0.978 ± 0.015 | 1.01 ± 0.058 | 0.963 ± 0.012
TESC (UniProt Q96BS2) | 1.01 ± 0.035 | 0.983 ± 0.071 | 0.985 ± 0.095 | 0.968 ± 0.16 | 0.907 ± 0.074 | 0.932 ± 0.092 | 0.926 ± 0.073 | 0.915 ± 0.09
UniProt Q8WVK2 and related entries | 0.99114 ± 6.7e-05 | 1.12 ± 0.018 | 1.12 ± 0.023 | 1.08 ± 0.068 | 1.07 ± 0.012 | 1.07 ± 0.095 | 1.16 ± 0.11 | 1.18 ± 0.098
UniProt Q8WZA9 | 0.944 ± 0.08 | 0.906 ± 0.052 | 0.93 ± 0.088 | 0.902 ± 0.074 | 0.895 ± 0.11 | 0.886 ± 0.072 | 0.881 ± 0.072 | 0.906 ± 0.093
PSPC1 (UniProt Q8WXF1) | 0.971 ± 0.054 | 0.972 ± 0.058 | 0.932 ± 0.069 | 0.939 ± 0.039 | 0.982 ± 0.061 | 0.948 ± 0.052 | 0.972 ± 0.082 | 0.954 ± 0.071
UniProt Q92542 and related entries | 0.862 ± 0.074 | 0.836 ± 0.035 | 0.895 ± 0.078 | 0.891 ± 0.092 | 0.927 ± 0.08 | 0.872 ± 0.066 | 0.832 ± 0.073 | 0.901 ± 0.085
UniProt Q92597 and related entries | 0.942 ± 0.083 | 0.906 ± 0.06 | 0.956 ± 0.071 | 0.967 ± 0.11 | 0.941 ± 0.1 | 0.92 ± 0.12 | 0.875 ± 0.032 | 0.932 ± 0.032
LRRC59 (UniProt Q96AG4) | 0.887 ± 0.03 | 0.904 ± 0.078 | 1.03 ± 0.053 | 1.01 ± 0.086 | 1.06 ± 0.065 | 1.09 ± 0.088 | 1.13 ± 0.068 | 1.16 ± 0.061

Some entries already given, limited to NP40-soluble protein abundance (concentration: 0.1mM), NP40-soluble protein abundance (concentration: 1mM) and NP40-soluble protein abundance (concentration: 6mM):
Target	NP40-soluble protein abundance (concentration: 0.1mM)	NP40-soluble protein abundance (concentration: 1mM)	NP40-soluble protein abundance (concentration: 6mM)
UniProt Q8WVK2 and related entries	0.99114 ± 6.7e-05	1.12 ± 0.023	1.07 ± 0.095
UniProt Q8WZA9	0.944 ± 0.08	0.93 ± 0.088	0.886 ± 0.072

Source: the supplement of paper PMC6411743
